The source of these data is PubChem BioAssay AID493014 (National Center for Advancing Translational Sciences (NCATS), 2011).

Structures are written as SMILES. The list shows a part of the results. The main result of the screen is listed elsewhere. These columns were measured beside it and carry no call. Compounds called inactive in the main read-out are mostly missing here. Potencies come from curve fits of mixed quality, noted in brackets.

A short description of the test: qHTS Assay to Find Inhibitors of Chronic Active B-Cell Receptor Signaling. The settings on record: ABC-DLBCL IkBa-CBG/CBR reporter, luminescence ratio (green luciferase fused to IkBa over red control in TMD8 lymphoma cells), 4 h. In outline: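 TMD8 human ABC-DLBCL cells with doxycycline-inducible IκBα–green luciferase fusion and unfused red luciferase, in 0.5% FBS medium; compounds up to 46 uM, 4 h at 37C. Green/red luminescence ratio, filter-overlap corrected, fitted to concentration-response curves.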
On the technique in general: Quantitative high-throughput screening tests each substance at several concentrations.

Setting [1] is: measured here: CBR red luminescence, cell number.
The mark [2] stands for this setting: measured here: IkBa-CBG green luminescence.

For orientation: AC50 means the concentration giving half of the maximal activity seen. For `O=C(CSc1nnc(-c2ccco2)o1)c1ccccc1Cl`, the half-maximal activity concentration (AC50) under setting [1] is 35.5 µM [falling, single point].

Consider `COc1ccccc1NC(=O)c1ccc2nsnc2c1`, for which, under setting [1], the AC50 was 6.31 µM [rising, single point].

As to `CN(C)c1ccc(P(=O)(Nc2ccc([N+](=O)[O-])cc2)N2CCOCC2)c(NC(=O)c2cccs2)c1` (centres undefined), the concentration at half-maximal activity (AC50) under setting [1] was 25.9 µM [rising, single point].

`COc1ccccc1NC(=O)N(Cc1cccs1)Cc1cc2cc3c(cc2[nH]c1=O)OCO3`: under setting [1], the half-maximal activity concentration (AC50) was 7.31 µM [falling, partial curve, poor fit].

For `Cn1c(=O)c2c(nc(NCC3CCCO3)n2C)n(C)c1=O` (centres undefined), the AC50 under setting [1] is 23.1 µM [falling, single point].

For the compound `CN(C)CCNC(=O)c1csc(Nc2cccc3ccccc23)n1`, the AC50 under setting [1] was 6.31 µM [falling, partial curve, poor fit].

For `O=C(N=C1N=C2C=CC=CN2Cc2ccccc21)c1ccc(S(=O)(=O)N2CCCC2)cc1`, the AC50 under setting [2] was 8.91 µM [rising, partial curve, poor fit].

In the case of `CNC(=S)NNC(=O)c1cccn(Cc2ccc(Cl)cc2Cl)c1=O`, the AC50 under setting [1] is 1.12 µM [rising, full curve].

Turning to `Cc1ccc([N+](=O)[O-])cc1N=Nc1c(-c2ccc([N+](=O)[O-])cc2)[nH]n(C(N)=S)c1=O`, the AC50 is 5.62 µM [falling, single point] under setting [1] and 1.12 µM [falling, partial curve, poor fit] under setting [2].

As for `c1ccc(-c2nc(N3CCOCC3)sc2-c2ccccc2)cc1`, under setting [1], the AC50 is 0.447 µM [rising, partial curve, poor fit].

As to `Cc1cc(C)cc(C(=O)NC(=S)Nc2ccc(Cc3ccncc3)cc2)c1`, the AC50 under setting [1] was 20.6 µM [rising, single point].

`Fc1cccc(CSc2ccc(-c3ccco3)nn2)c1`: under setting [1], the concentration at half-maximal activity (AC50) was 0.651 µM [rising, full curve, poor fit].

On to `Cc1nn(-c2ccccc2)c(Cl)c1C(=O)NNC(=O)c1ccncc1`, for which, under setting [1], the half-maximal activity concentration (AC50) was 20.6 µM [falling, single point].

Regarding `CCc1ccc(C(=O)COC(=O)C(CCSC)NC(=O)C23CC4CC(CC(C4)C2)C3)cc1` (centres undefined), the half-maximal activity concentration (AC50) under setting [1] was 7.31 µM [rising, partial curve].

Consider `CCn1c(C)nc2cc(-c3nnc(-c4c(-c5ccccc5)noc4C)o3)ccc21`, for which the concentration at half-maximal activity (AC50) under setting [1] was 7.08 µM [falling, partial curve, poor fit].

In the case of `N#C/C(=C/c1ccncc1)c1nc2ccccc2s1`, the half-maximal activity concentration (AC50) under setting [1] is 3.55 µM [falling, partial curve, poor fit].

Consider `CCN(CC)CCCN1C(=O)C(O)=C(C(=O)c2sc(C)nc2C)C1c1ccco1` (centres undefined), for which the AC50 under setting [1] is 3.55 µM [rising, single point].

With `O=c1[nH]c(SCc2ccccc2)nc2c1sc1ccccc12`, under setting [1], the AC50 was 0.141 µM [rising, full curve, poor fit].

In the case of `Cc1cc(NC(=O)/C=C/c2ccccc2)no1`, the half-maximal activity concentration (AC50) under setting [1] is 29.1 µM [falling, single point].

For `CC(C)Oc1ccc(Nc2ncnc3ccccc23)cc1`, the concentration at half-maximal activity (AC50) under setting [1] was 2.24 µM [rising, partial curve, poor fit].

As for `O=C(Nc1ccccc1Cl)C1CCN(S(=O)(=O)c2cccc3nonc23)CC1`, the AC50 under setting [1] is 1.58 µM [falling, partial curve, poor fit].

Consider `CCOc1c2ccc(C(=O)NCc3cc(C(F)(F)F)cc(C(F)(F)F)c3)cc2nn1C`, for which the AC50 under setting [1] was 2.82 µM [rising, partial curve, poor fit].

With `CC(C)NC(=O)NC(=O)CSc1nnc(-c2c[nH]c3ccccc23)o1`, the AC50 under setting [1] is 22.4 µM [falling, partial curve, poor fit].

On to `Cc1noc(C)c1COc1cccc(C(=O)NCc2cccc(Cl)c2)c1`, for which the AC50 under setting [1] is 25.1 µM [falling, single point].

On to `O=C(/C=C/c1ccc([N+](=O)[O-])o1)NNC(=O)c1ccc(F)cc1`, for which the AC50 under setting [1] is 35.5 µM [falling, single point].

Turning to `Cc1ccc(-n2ncc3c(=O)n(CC#N)cnc32)cc1`, the AC50 under setting [1] is 5.62 µM [rising, partial curve, poor fit].

On to `COc1cccc(-c2coc3cc4oc(=O)c(CCC(=O)O)c(C)c4cc23)c1`, for which the AC50 under setting [1] was 2.51 µM [rising, partial curve, poor fit].

As to `O=C(OCC(F)(F)F)c1cccc(COc2ccc3ccccc3c2)c1`, the AC50 under setting [1] was 1.84 µM [falling, full curve].

On to `COc1cc(CCC(=O)OCC(=O)Nc2ccc(C)cc2Br)cc(OC)c1OC`, for which the AC50 under setting [1] is 3.55 µM [rising, single point].

Regarding `O=C(CSc1nccc(=O)[nH]1)Nc1ccc(Br)c(Cl)c1`, the AC50 under setting [1] was 6.31 µM [rising, single point].

For `CCCCNC(=O)Nc1cc(C(=O)OC)ccc1Cl`, under setting [1], the half-maximal activity concentration (AC50) is 20.6 µM [rising, partial curve].

As to `Cc1cccc(OCC(=O)N(Cc2ccco2)c2c(N)n(Cc3ccccc3)c(=O)[nH]c2=O)c1`, under setting [1], the AC50 is 16.4 µM [falling, partial curve, poor fit].

Turning to `CN1C(=O)c2ccccc2C(C(=O)O)C1c1cccc(F)c1` (centres undefined), the AC50 under setting [1] was 3.16 µM [rising, full curve, poor fit].

For `COc1cc([N+](=O)[O-])ccc1NC(=O)Nc1ccc2c(c1)OCCO2`, the AC50 under setting [1] is 2.82 µM [rising, partial curve, poor fit].

Turning to `CCCc1cc(=O)n2c([nH]c3ccccc32)c1C#N`, the AC50 under setting [1] was 0.651 µM [falling, full curve].

For the compound `Cc1ncc(CN2CCCC(C(=O)Nc3ccc(-c4cccc(F)c4)cc3)C2)n1C` (centres undefined), under setting [1], the concentration at half-maximal activity (AC50) was 25.1 µM [falling, single point].

On to `O/N=C(\c1ccc2c(c1)OCCO2)C1CCCCC1`, for which, under setting [1], the concentration at half-maximal activity (AC50) was 6.51 µM [rising, partial curve, poor fit].

With `Cc1ccc(NC(=O)c2cc(-c3ccco3)nc3ccccc23)cc1S(=O)(=O)N1CCOCC1`, under setting [1], the half-maximal activity concentration (AC50) is 31.6 µM [falling, single point].

On to `O=C1c2ccc(-c3ccc(F)cc3OCc3ccccc3)cc2S(=O)(=O)c2cccc(C(=O)N3CCN(c4ncc(Cl)cc4Cl)CC3)c21`, for which, under setting [1], the concentration at half-maximal activity (AC50) was 5.17 µM [rising, partial curve, poor fit].

For the compound `Cc1ccc(NC(=O)C(C)N2CCc3ccccc3C2)cc1` (centres undefined), the half-maximal activity concentration (AC50) under setting [1] was 14.1 µM [rising, single point].

With `Cc1ccccc1C(=O)N1CCN(c2ccc(NC(=S)NC(=O)c3ccco3)cc2)CC1`, the AC50 under setting [1] is 3.98 µM [falling, partial curve, poor fit].

As to `O=C(CSc1nc2ccccc2[nH]1)Nc1nc(-c2ccccc2)c(-c2ccccc2)o1`, the AC50 under setting [2] is 2.91 µM [rising, full curve, poor fit].

As to `Cc1ccc(NC(=O)c2cc(=O)c3ccccc3o2)cc1S(=O)(=O)N1CCCCC1`, the AC50 under setting [1] was 14.1 µM [falling, single point].

As for `C/C(=N/NC(=O)c1ccc(Br)o1)C(C)C`, the half-maximal activity concentration (AC50) under setting [1] was 16.4 µM [falling, single point].

As to `Cc1cccc(C)c1NC(=O)COC(=O)c1ccccc1Nc1ccccc1`, the half-maximal activity concentration (AC50) under setting [1] was 2.31 µM [rising, full curve, poor fit].

With `COC(=O)c1ccccc1NC(=O)C1CCCN(S(=O)(=O)c2ccc(F)cc2)C1` (centres undefined), under setting [1], the AC50 is 1.84 µM [rising, partial curve, poor fit].

Turning to `Cc1nc(NC(=O)c2cccs2)ccc1Br`, under setting [1], the AC50 is 10 µM [falling, single point].

For the compound `COc1ccc(-c2csc(NC3OC(=O)c4c3ccc(OC)c4OC)n2)cc1OC` (centres undefined), the AC50 under setting [1] is 12.6 µM [falling, partial curve, poor fit].

Consider `CCC(=O)Nc1cc2c(cc1C(C)=O)OCCO2`, for which the AC50 was 8.2 µM [falling, partial curve] under setting [1] and 23.1 µM [rising, partial curve, poor fit] under setting [2].

With `Clc1ccc(CN2C3=NCCCN3c3ccccc32)cc1`, under setting [1], the half-maximal activity concentration (AC50) was 11.2 µM [falling, partial curve].

As for `Cc1nn(C(=O)c2cccc([N+](=O)[O-])c2)c(C)c1Cl`, the AC50 under setting [1] is 11.2 µM [rising, partial curve, poor fit].

As to `CC1(C(=O)Nc2ccccc2)Cc2ccccc2C(=O)O1` (centres undefined), under setting [1], the AC50 was 35.5 µM [falling, single point].

In the case of `CCCSC1=C(C#N)C(c2ccc(Cl)cc2Cl)CC(=O)N1` (centres undefined), under setting [1], the AC50 is 20.6 µM [falling, single point].

On to `O=C(O)c1ccc(N2CCN(C(c3ccccc3)c3ccccc3)CC2)c([N+](=O)[O-])c1`, for which the concentration at half-maximal activity (AC50) is 11.2 µM [falling, partial curve, poor fit] under setting [1] and 17.8 µM [rising, partial curve, poor fit] under setting [2].

Consider `Cc1ccc(-c2nc3ccccc3[nH]2)cc1NC(=O)c1sc2cc(Cl)ccc2c1Cl`, for which the half-maximal activity concentration (AC50) under setting [1] is 1.3 µM [rising, full curve].

Regarding `Cc1cc(C)n(-c2nc(Nc3ccccc3)nc(-n3nc(C)cc3C)n2)n1`, under setting [1], the AC50 was 0.891 µM [falling, full curve, poor fit].

Take `COC(=O)c1c(C)[nH]c(C(=O)C(C)OC(=O)C2CC(=O)N(c3ccc(C)cc3)C2)c1C` (centres undefined): the concentration at half-maximal activity (AC50) under setting [1] is 18.4 µM [falling, single point].

For `Nc1nnc(CC(=O)N/N=C/c2cccc(OCCOc3ccccc3)c2)s1`, under setting [1], the AC50 is 29.1 µM [falling, single point].

Turning to `Cc1nc(-c2ccccc2)sc1C1(C)CC(c2ccc(OC(F)(F)F)cc2)=NO1` (centres undefined), the AC50 under setting [1] was 25.1 µM [rising, single point].

Consider `CCN(C(=O)COC(=O)c1[nH]c(C)c(C(C)=O)c1C)C1CCS(=O)(=O)C1` (centres undefined), for which the AC50 under setting [1] was 20 µM [falling, partial curve, poor fit].

As for `CN(c1ccccc1)S(=O)(=O)c1ccc(Cl)c(C(=O)NCCc2c[nH]c3ccccc23)c1`, the AC50 under setting [1] was 25.9 µM [falling, single point].
